± gives the standard deviation of the averaged measurements. The full ranking holds about 1,600 compounds; the median of “normalized growth (OD600, IQM-normalized) in LPM” is about 1, and the lowest 2% start at about 0.014. Some of the results follow.

For the assay, the system named is Salmonella enterica serovar Typhimurium SL1344. The assay is described as follows: normalized growth (OD600, IQM-normalized) in LPM (fraction of plate interquartile mean); higher = more bacterial growth (less inhibition). Particulars: LPM pH 5.8; 10 µM; 16 h.
For `CC(C)c1cccc(C(C)C)c1O`, the normalized growth was 1.01 ± 0.018.
Then `CC(=O)O[C@H]1CC[C@@]2(C)C(=CC[C@@H]3[C@@H]2CC[C@]2(C)C(=O)CC[C@@H]32)C1`, with 0.979 ± 0.035; and `CN1C[C@H](CNC(=O)OCc2ccccc2)C[C@@H]2c3cccc4c3c(cn4C)C[C@H]21`, with 0.918 ± 0.026.
Then `Oc1ccc2c3c1O[C@H]1[C@@H](O)CC[C@@]4(O)[C@@H](C2)N(CC2CCC2)CC[C@]314`, with 0.92 ± 0.12; and `CC1C=CC=CCCC=CC=CC=CC=CC(OC2OC(C)C(O)C(N)C2O)CC2OC(O)(CC(O)C(O)CCC(O)CC(O)CC(O)CC(=O)OC(C)C(C)C1O)CC(O)C2C(=O)O` (stereo not given), with 0.896 ± 0.028; and `COc1cc2c(c(OC)c1OC)-c1ccc(OC)c(=O)cc1[C@@H](NC(C)=O)CC2`, with 1.08 ± 0.062.
On to `CC[C@@H](CO)NC(=O)[C@@H]1C=C2c3cccc4c3c(cn4C)C[C@H]2N(C)C1`, for which the normalized growth was 1.07 ± 0.024.
Then `C[C@]12CC[C@H](O)CC1=CC[C@@H]1[C@@H]2CC[C@]2(C)C(=O)CC[C@@H]12`, with 1.05 ± 0.049; and `c1ccc2c(c1)OCC(C1=NCCN1)O2` (stereo not given), with 0.876 ± 0.059.
To `CC[N+]1(C)CCCC(OC(=O)C(O)(c2ccccc2)c2ccccc2)C1` (stereo not given) belongs 1.01 ± 0.041; to `CC[C@@H](CO)NC(=O)[C@@H]1C=C2c3cccc4[nH]cc(c34)C[C@H]2N(C)C1`, 1.11 ± 0.044; to `CCC1(C2=NCCN2)Cc2ccccc2O1` (stereo not given), 0.994 ± 0.11.
To `CCCCOC(=O)c1ccccc1C(=O)OCCCC` belongs 1.363 ± 0.0046; to `O=C(O)c1nn(Cc2ccc(Cl)cc2Cl)c2ccccc12`, 1.06 ± 0.078.
`Cc1cc(C(C#N)c2ccc(Cl)cc2)c(Cl)cc1NC(=O)c1cc(I)cc(I)c1O` (stereo not given) displayed a normalized growth of 0.801 ± 0.012.
For `COc1ccc2c(c1OC)C(=O)O[C@@H]2[C@H]1c2cc3c(cc2CCN1C)OCO3`, the normalized growth is 1.06 ± 0.046.
Then `C[C@@H]1C[C@@H]([C@H](O)CC2CC(=O)NC(=O)C2)C(=O)[C@@H](C)C1`, with 1.04 ± 0.035; and `CC[C@@H](C)C(=O)O[C@H]1[C@H](O)[C@H]2[C@@H](CN3C[C@@H](C)CC[C@H]3[C@@]2(C)O)[C@@H]2C[C@]34O[C@]5(O)[C@@H](OC(=O)[C@@](C)(O)CC)CC[C@@]3(C)[C@@H]5[C@@H](OC(C)=O)[C@@H](OC(C)=O)[C@H]4[C@@]21O`, with 0.96 ± 0.042; and `O=c1cccc2n1C[C@@H]1CNC[C@H]2C1`, with 1.31 ± 0.39.
To `NCC1(CC(=O)O)CCCCC1` belongs 1.02 ± 0.1.
To `O=C(CCCN1CCC2(CC1)C(=O)NCN2c1ccccc1)c1ccc(F)cc1` belongs 0.882 ± 0.088; to `O=[N+]([O-])O[C@H]1CO[C@H]2[C@@H]1OC[C@H]2O[N+](=O)[O-]`, 1.02 ± 0.046.
`CC(O)(CS(=O)(=O)c1ccc(F)cc1)C(=O)Nc1ccc(C#N)c(C(F)(F)F)c1` (stereo not given) yielded a normalized growth of 0.942 ± 0.051.
To `CCOC(=O)c1cncn1[C@H](C)c1ccccc1` belongs 1.04 ± 0.028.
To `O=[N+]([O-])C(Br)(CO)CO` belongs 0.786 ± 0.02; to `CN1[C@@H]2C[C@@H](OC(=O)[C@H](CO)c3ccccc3)C[C@H]1[C@@H]1O[C@@H]12`, 1.06 ± 0.019; to `CN1C[C@H](C(=O)N[C@]2(C)O[C@@]3(O)[C@@H]4CCCN4C(=O)[C@H](Cc4ccccc4)N3C2=O)C=C2c3cccc4[nH]cc(c34)C[C@H]21`, 1.02 ± 0.026.
To `[O-][n+]1ccccc1[S-].[O-][n+]1ccccc1[S-].[Zn+2]` belongs 0.00799 ± 0.00024; to `CN1CCN(C(=O)O[C@H]2c3nccnc3C(=O)N2c2ccc(Cl)cn2)CC1`, 0.963 ± 0.034; to `O=C1CC[C@@]2(O)[C@H]3Cc4ccc(O)c5c4[C@@]2(CCN3CC2CC2)[C@H]1O5`, 0.841 ± 0.039.
With `NC(=O)c1cc([N+](=O)[O-])cc([N+](=O)[O-])c1`, the normalized growth is 1.13 ± 0.03.
`CN[C@@H]1[C@@H](O)[C@@H](O[C@@H]2[C@@H](O)[C@H](O[C@H]3O[C@H](CN)CC[C@H]3N)[C@@H](N)C[C@H]2N)OC[C@]1(C)O.CN[C@@H]1[C@@H](O)[C@@H](O[C@@H]2[C@@H](O)[C@H](O[C@H]3O[C@H]([C@@H](C)N)CC[C@H]3N)[C@@H](N)C[C@H]2N)OC[C@]1(C)O.CN[C@@H]1[C@@H](O)[C@@H](O[C@@H]2[C@@H](O)[C@H](O[C@H]3O[C@H]([C@@H](C)NC)CC[C@H]3N)[C@@H](N)C[C@H]2N)OC[C@]1(C)O`: the normalized growth was determined as 1.01 ± 0.023.
To `NCc1cccnc1` belongs 1.02 ± 0.037.
To `O=C(O)CCCO` belongs 0.949 ± 0.092; to `C=C/C=C\CC1=C(C)[C@@H](OC(=O)[C@@H]2[C@@H](/C=C(\C)C(=O)OC)C2(C)C)CC1=O.C=C/C=C\CC1=C(C)[C@@H](OC(=O)[C@@H]2[C@@H](C=C(C)C)C2(C)C)CC1=O`, 0.904 ± 0.019; to `CC(NC(C)(C)C)C(=O)c1cccc(Cl)c1` (stereo not given), 0.942 ± 0.026.
Then `NCC(CC(=O)O)c1ccc(Cl)cc1` (stereo not given), with 0.998 ± 0.032; and `CCOC(=O)CC(SP(=S)(OC)OC)C(=O)OCC` (stereo not given), with 1.24 ± 0.032.
Compound `CC(N)Cc1ccc(O)cc1` (stereo not given) displayed a normalized growth of 0.973 ± 0.039.
Then `C[C@]12CC[C@H]3[C@@H](CCC4=CC(=O)CC[C@@]43C)[C@@H]1CC[C@@H]2O`, with 1.19 ± 0.11; and `c1ccc2c(c1)Nc1ccccc1S2`, with 0.829 ± 0.039.
`Cc1ccc(/N=C/N(C)/C=N/c2ccc(C)cc2C)c(C)c1` registered a normalized growth of 1.033 ± 0.0032.
For `O=c1c2ccccc2[se]n1-c1ccccc1`, the normalized growth came to 1.01 ± 0.012.
To `NCC(O)c1ccc(O)cc1` (stereo not given) belongs 0.994 ± 0.038.
To `CC(=O)O[C@H]1C[C@@H]2CC[C@@H]3[C@H](CC[C@@]4(C)[C@H]3C[C@H]([N+]3(C)CCCCC3)[C@@H]4OC(C)=O)[C@@]2(C)C[C@@H]1[N+]1(C)CCCCC1` belongs 1.01 ± 0.042.
For the compound `COP(=O)(OC)C(O)C(Cl)(Cl)Cl` (stereo not given), the normalized growth turned out to be 1.01 ± 0.022.
`C=CCN1CC[C@]23c4c5ccc(O)c4O[C@H]2C(=O)CC[C@@]3(O)[C@H]1C5`: the normalized growth came out at 1.04 ± 0.082.
Compound `O=c1n(Cl)c(=O)n(Cl)c(=O)n1Cl` yielded a normalized growth of 0.903 ± 0.03.
Then `C[C@]12CCC(=O)C=C1C=C[C@@H]1[C@@H]2CC[C@@]2(C)[C@H]1CC[C@@]2(O)CCC(=O)O`, with 1.04 ± 0.025; and `CC[C@@H](C(=O)[C@@H](C)[C@@H](O)[C@H](C)[C@@H]1O[C@@H]([C@@H](CC)C(=O)O)CC[C@@H]1C)[C@H]1O[C@]2(C=C[C@@H](O)[C@]3(CC[C@@](C)([C@H]4CC[C@](O)(CC)[C@H](C)O4)O3)O2)[C@H](C)C[C@@H]1C`, with 0.972 ± 0.036.
To `Cc1cccc(C)c1NC(=O)CN1CCCC1=O` belongs 1.01 ± 0.052; to `S=C=NCc1ccccc1`, 1.05 ± 0.08; to `COP(=O)(OC)OC=C(Cl)Cl`, 0.776 ± 0.065.
In turn, `CNC(=O)Oc1ccc2c(c1)[C@]1(C)CCN(C)[C@@H]1N2C` yielded a normalized growth of 0.934 ± 0.048.
Regarding `CN(C)C(=O)Oc1cccc([N+](C)(C)C)c1`, the normalized growth was found to be 1.01 ± 0.025.
To `CN1[C@H]2C[C@H](OC(=O)[C@H](CO)c3ccccc3)C[C@@H]1[C@@H](O)C2` belongs 1.08 ± 0.031.
To `COc1ccc(C(CN(C)C)C2(O)CCCCC2)cc1` (stereo not given) belongs 0.962 ± 0.039.
Then `CN1CCc2cc3c(cc2C1O)OCO3` (stereo not given), with 1.04 ± 0.11.
For the compound `NP(N)(=O)NC(=O)c1ccc(F)cc1`, the normalized growth turned out to be 1.06 ± 0.017.
Then `CC(C)C[C@H]1C(=O)N2CCC[C@H]2[C@]2(O)O[C@](NC(=O)[C@@H]3C=C4c5cccc6[nH]c(Br)c(c56)C[C@H]4N(C)C3)(C(C)C)C(=O)N12`, with 0.947 ± 0.03; and `CN1[C@@H]2CC[C@H]1C[C@@H](OC(=O)C(CO)c1ccccc1)C2` (stereo not given in full), with 0.974 ± 0.016; and `CNCC(O)c1ccc(O)cc1` (stereo not given), with 0.85 ± 0.044.
To `CNC(C)(C)Cc1ccccc1` belongs 0.885 ± 0.077; to `CCOP(=S)(OCC)Oc1cc(C)nc(C(C)C)n1`, 1.01 ± 0.023; to `C[C@]12CCC(=O)C(O)=C1CC[C@@H]1[C@@H]2CC[C@]2(C)C(=O)CC[C@@H]12`, 0.995 ± 0.12.
The compound `NCCCNCCSP(=O)(O)O` displayed a normalized growth of 1.03 ± 0.031.
Take `O=[N+]([O-])OCC(CO[N+](=O)[O-])O[N+](=O)[O-]`: the normalized growth turned out to be 1.13 ± 0.018.
To `CCCCCCCCC(=O)NCc1ccc(O)c(OC)c1` belongs 0.96 ± 0.043; to `Nc1ccc([As](=O)(O)O)cc1`, 1.12 ± 0.032; to `CC(=O)Nc1cc([As](=O)(O)O)ccc1O`, 1.18 ± 0.14.
Then `O=c1[nH]c2ccccc2n1C1CCN(CCCC(c2ccc(F)cc2)c2ccc(F)cc2)CC1`, with 0.965 ± 0.0036; and `CC(=O)[O][Hg][c]1ccccc1`, with 0.0096 ± 0.00029.
Then `C#CCN(C)[C@H](C)Cc1ccccc1`, with 1 ± 0.021; and `C[C@@H]1O[C@@H](O[C@@H]2C=C3CC[C@@H]4[C@H](CC[C@]5(C)[C@@H](c6ccc(=O)oc6)CC[C@]45O)[C@@]3(C)CC2)[C@H](O)[C@H](O)[C@H]1O`, with 0.967 ± 0.041; and `CN(C)C(=O)Oc1ccc[n+](C)c1`, with 1.14 ± 0.054.
On to `CCCC(C)(COC(N)=O)COC(=O)NC(C)C` (stereo not given), for which the normalized growth turned out to be 1.03 ± 0.024.
For `COC(C)(C)CCC[C@H](C)C/C=C/C(C)=C/C(=O)OC(C)C`, the normalized growth came to 1.06 ± 0.081.
To `Oc1ccc(Cl)cc1Cc1cc(Cl)ccc1O` belongs 0.895 ± 0.086.
To `CC(O)CN1CCN(CC(=O)[O-])CCN(CC(=O)[O-])CCN(CC(=O)[O-])CC1.[Gd+3]` (stereo not given) belongs 1.05 ± 0.024.
`N[C@@H]1C[C@H]1c1ccccc1.N[C@H]1C[C@@H]1c1ccccc1`: the normalized growth came out at 1.11 ± 0.043.
Then `C#CC(C)(O)CC` (stereo not given), with 1.01 ± 0.028.
For `C[N+]1(C)CCCC(OC(=O)C(O)(c2ccccc2)c2ccccc2)C1` (stereo not given), the normalized growth worked out at 1.1 ± 0.011.
Consider `CCC1(CC)C(=O)NC(=O)NC1=O`, for which the normalized growth came out at 0.917 ± 0.018.
To `O=C1CCO1` belongs 0.959 ± 0.039; to `COc1ccc(OC)c(C(O)C(C)N)c1` (stereo not given), 1.03 ± 0.39; to `CC([C@H](O)c1ccccc1)N(C)C` (stereo not given in full), 0.939 ± 0.095.
Then `CCC(=O)O[C@H]1CC[C@H]2[C@@H]3CCC4=CC(=O)CC[C@]4(C)[C@H]3CC[C@]12C`, with 1.08 ± 0.021.
`CCOP(=S)(OCC)Oc1nc(Cl)c(Cl)cc1Cl` registered a normalized growth of 1.33 ± 0.11.
Compound `C=CCC1(C(C)CCC)C(=O)NC(=S)NC1=O` (stereo not given) returned a normalized growth of 0.897 ± 0.095.
Then `CCCCCCCCCCCCCCCC[n+]1ccccc1`, with 0.0174 ± 0.0071; and `CC(=O)NC1CCSC1=O` (stereo not given), with 0.848 ± 0.027; and `CNC(=O)Oc1ccccc1OC(C)C`, with 0.9696 ± 0.0074.
For `O=P1(N(CCCl)CCCl)NCCCO1` (stereo not given), the normalized growth was determined as 0.987 ± 0.084.
In turn, `c1ccc2c(c1)sc1ccccc12` yielded a normalized growth of 1 ± 0.029.
Then `CN1C(=O)CCS(=O)(=O)C1c1ccc(Cl)cc1` (stereo not given), with 1.04 ± 0.019.
To `CCOc1cc(C=O)ccc1O` belongs 0.853 ± 0.023.
Then `C=C1C[C@@H]2[C@H](CC[C@]3(C)C(=O)CC[C@@H]23)[C@@]2(C)C=CC(=O)C=C12`, with 1.01 ± 0.04.
Regarding `COc1ccc(Cc2nccc3cc(OC)c(OC)cc23)cc1OC`, the normalized growth came out at 1.13 ± 0.028.
Then `CCC1(CC)C(=O)C=CNC1=O`, with 1.09 ± 0.12; and `C[C@]12CC[C@H]3[C@@H](CC[C@@]45O[C@@H]4C(O)=C(C#N)C[C@]35C)[C@@H]1CC[C@@H]2O`, with 0.822 ± 0.098.

The values above are taken from the supplement of paper PMC6331611.
